# Primary screen of a compound library

Data taken from ChEMBL document CHEMBL3988442, “University of Dundee, Small-Polar-MMV Screening Library” (2021).

Results are given as percent effect. The record does not define 0% and 100%; most values in the screen are far below 50% and negative numbers occur (in some assays of this library far below -100). This is an unselected part of the compounds tested. A dash means the value is not listed here; it may have been measured.

Mtb growth Cornell: 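Whole-cell assay for inhibitors of Mycobacterium tuberculosis growth, labelled Cornell in the record; the read-out is not stated. The concentration is filed as 10 mM, unlikely as a test dose, so the dose is not known. The record gives no direction; compounds strong in two other growth screens of this library score well above the rest, so higher reads as stronger inhibition. Of about 53,000 compounds tested this way, about 900 (1.7%) reached 50% or more in at least one test.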
Mtb heat-shock: 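Assay on Mycobacterium tuberculosis, filed only as a heat shock assay from Cornell; the read-out is not stated. The concentration is filed as 10 mM, unlikely as a test dose, so the dose is not known. The record gives no direction; compounds that gave an IC50 in retests scored well above the rest, so higher reads as stronger inhibition. Size under these conditions: about 69,000 compounds, about 930 of them at 50% or above in at least one test.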

compound	Mtb growth Cornell	Mtb heat-shock
COc1ccc(C(=O)NCCCn2ccnc2)c(OC)n1	-12.31%	-25.27%
Cc1cc(CN(C)CCN(C)c2ccccc2)no1	20.03%	0.1875%
COc1ccc(C(C)N2CCC(OC)CC2)cc1Cl (stereo not shown)	14.78%	17.6%
Cc1noc(C)c1CNC(=O)NCCC(=O)N1CCCc2ccccc21	-5.48%	7.909%
O=C(O)C(F)(F)F.[H][C@@]12CN(C(=O)c3cccnc3)C[C@]1([H])C(=O)N(Cc1cccc(F)c1)C2	26.54%	-29.23%
[H][C@]12CC[C@@]3(N=C(CC)N(C)C3=O)[C@@]1([H])CN(C(=O)NCc1ccccc1)C2	-17%	-9.658%
Cn1c(NCCN2CCCCCC2)c(C#N)c(=O)n(C)c1=O	-	-9.172%
CN(CC(=O)NC(Cc1ccccc1)C1CCCC1)S(C)(=O)=O (stereo not shown)	-	-5.176%
CC(O)(CNC(=O)c1cccnc1-n1cccn1)c1ccsc1 (stereo not shown)	3.965%	3.306%
O=C(O)C(F)(F)F.O=C(O)C(F)(F)F.[H][C@@]12COC[C@]1(CNS(=O)(=O)CC)CN(Cc1ccncc1)C2	6.268%	-16.34%
O=C(O)C(F)(F)F.O=C(O)C(F)(F)F.c1c(CN2CCCC2)nc2n1CCN(CC1CC1)C2	0.2569%	-13.48%
CCC(=O)NCc1cc(Br)ccc1OC(F)F	32.75%	-3.306%
COCc1ccccc1C(=O)N1CCn2c(nnc2C(C)C)C1	14.75%	-2.771%
Cc1nnc(CNC(=O)[C@@H]2C[C@H](NC(=O)C(C)(C)C)CN2C)[nH]1	-4.323%	1.349%
CC(C)(C)c1nc(CN(Cc2cccs2)C2CCS(=O)(=O)C2)cs1 (stereo not shown)	-	0.7136%
CC(=O)N1CCc2c(nc(-c3ccncc3)nc2N(C)CC(O)CO)C1 (stereo not shown)	23.95%	-7.448%
COc1ccc(C(C)NC(=O)NCCNc2ccccn2)c(OC)c1 (stereo not shown)	-13.05%	18%
Cc1c(Cl)cccc1NC(=O)c1nc[nH]n1	-19.79%	-9.506%
Clc1cccc2c1CCN(Cc1nc(CC3CC3)no1)C2	-	30.38%
Cc1nc(C)n(Cc2cccc(NC(=O)NC(C)(CO)C3CC3)c2)n1 (stereo not shown)	-	-4.702%
COc1ccccc1N1CCC(N2CCOCC(CO)C2)CC1 (stereo not shown)	-9.038%	6.299%
[H][C@@]12CN(C(=O)c3cnccn3)C[C@]1([H])OCC(=O)N2CC1CCCCC1	-1.573%	-14.18%
Cc1cnc(C(=O)N2CCCC(n3cccn3)C2)cn1 (stereo not shown)	-11.12%	-19.2%
CCOCC(C)(C)NC(=O)Nc1cc(F)ccc1OC	4.634%	14.7%
[H][C@]12CC[C@]([H])(CN(C(=O)COc3ccc(F)c(Cl)c3)C1)N(CCOC)C2=O	24.92%	19.17%
CC(=O)Nc1nc(CNc2ccccc2CCC(F)(F)F)cs1	22.53%	16.95%
CN(CC(=O)NCCCOc1ccc(F)cc1)c1ccc(C#N)cn1	-8.104%	19.95%
O=C(O)C(F)(F)F.c1cnc(NC2COC3(CCN(Cc4nccs4)CC3)C2)cn1 (stereo not shown)	10.25%	-8.374%
Cc1cc(=O)n(CC(=O)Nc2ccc(C(N)=O)cc2)nc1C	-	19.01%
OC1(CNCCN2CCCc3ccccc32)CCNC1 (stereo not shown)	46.33%	-2.297%
CC(C)(C)c1cnc(CN2CCCS2(=O)=O)o1	-4.114%	-16.03%
CN(CCc1ccncc1)c1cnn(C)c(=O)c1Br	-2.68%	-20.74%
Cc1nn(C)c(N(C)C)c1CNCc1ccc(C(=O)N(C)C)cc1	-	-22.77%
Cc1nnc2n1CCN(c1nn3cc(C(C)(C)C)nc3s1)C2	14.23%	-8.722%
CC(C)(CNC(=O)OC(C)(C)C)NC(=O)C1CC(=O)N(C2CC2)C1 (stereo not shown)	-24.11%	-8.714%
Cc1ccc(C(NC(=O)CC2CCN(C(C)C)CC2)C(=O)O)cc1 (stereo not shown)	-	-13.38%
Cc1ccccc1NC(=O)CNC(C)COc1ccccc1 (stereo not shown)	30.3%	-25.49%
Cc1cccnc1CNC(=O)N(CCCO)C1CCc2ccccc21 (stereo not shown)	-	-8.199%
CCN1CCCC(CN2CCn3nc(CNC(=O)N(C)C)cc3C2)C1 (stereo not shown)	3.542%	-9.725%
[H][C@]12CCCCN1CCC[C@H]2Cn1ccnc1-c1cccc2cccnc12	-	-4.315%
CC(C)(C)n1ncc2c1NC(=O)CSC2c1ccc2c(c1)OCO2 (stereo not shown)	2.732%	-11.83%
CC(C)n1ccnc1C1CCN(C(=O)c2cc[nH]n2)CC1	18.83%	4.279%
[H][C@]12CCCC(=O)N[C@@]1(C)CCCCN2C(=O)CCn1nccc1C	0.426%	-2.965%
Cc1nc2c(c(Nc3ccccn3)n1)CN(S(C)(=O)=O)CC2	-6.134%	0.5126%
O=C(NC1CC1)c1nc(Cn2c(C(F)F)nc3ccccc32)no1	5.845%	17.88%
COCC(NC(=O)NCc1ccc(C)c(F)c1)c1ccco1 (stereo not shown)	-	-15.6%
COC[C@]1(O)CCN(C2CCN(c3ccc(OC)cc3)CC2)CC1(C)C	-49.6%	40.07%
Cc1nnc(NC(=O)CN2CCc3nn(C)c(=O)cc3C2)s1	-	-8.746%
O=C(c1cnn2c1OCCC2)N1CCN(C(=O)C2CCCO2)CC1 (stereo not shown)	12.66%	15.05%
O=C(c1cccc(-n2cccn2)c1)N1CCCOC(Cn2cccn2)C1 (stereo not shown)	5.073%	-23.19%

Some entries from above, unchanged:

compound,Mtb growth Cornell,Mtb heat-shock
COc1ccc(C(C)NC(=O)NCCNc2ccccn2)c(OC)c1 (stereo not shown),-13.05%,18%
CN(CC(=O)NCCCOc1ccc(F)cc1)c1ccc(C#N)cn1,-8.104%,19.95%
CC(C)(CNC(=O)OC(C)(C)C)NC(=O)C1CC(=O)N(C2CC2)C1 (stereo not shown),-24.11%,-8.714%
CCOCC(C)(C)NC(=O)Nc1cc(F)ccc1OC,4.634%,14.7%